# Measurements published in patent US8137941B2, “Chondroitin polymerase and DNA encoding the same” (Seikagaku Corporation, priority 2001, dated 2012).
# Assay: Analysis of influence by temperature on the enzyme reaction
# Assay type: biochemical, shark
# Settings: 25, 30, 37, 40, 45 or 100° C. examined
molecule,measurement,value
"enzyme of the present invention: His-tagged recombinant chondroitin polymerase (SEQ ID NO:2) of Escherichia coli strain K4, expressed from pTrcHisC in E. coli TOP10 (protein, listed as Escherichia coli, His tag) MSILNQAINLYKNKNYRQALSLFEKVAEIYDVSWVEANIKLCQTALNLSEEVDKLNRKAVIDIDAATKIMCSNAKAISLNEVEKNEIISKYREITAKKSERAELKEVEPIPLDWPSDLTLPPLPESTNDYVWAGKRKELDDYPRKQLIIDGLSIVIPTYNRAKILAITLACLCNQKTIYDYEVIVADDGSKENIEEIVREFESLLNIKYVRQKDYGYQLCAVRNLGLRAAKYNYVAILDCDMAPNPLWVQSYMELLAVDDNVALIGPRKYIDTSKHTYLDFLSQKSLINEIPEIITNNQVAGKVEQNKSVDWRIEHFKNTDNLRLCNTPFRFFSGGNVAFAKKWLFRAGWFDEEFTHWGGEDNEFGYRLYREGCYFRSVEGAMAYHQEPPGKENETDRAAGKNITVQLLQQKVPYFYRKKEKIESATLKRVPLVSIYIPAYNCSKYIVRCVESALNQTITDLEVCICDDGSTDDTLRILQEHYANHPRVRFISQKNKGIGSASNTAVRLCRGFYIGQLDSDDFLEPDAVELCLDEFRKDLSLACVYTTNRNIDREGNLISNGYNWPIYSREKLTSAMICHHFRMFTARAWNLTEGFNESISNAVDYDMYLKLSEVGPFKHINKICYNRVLHGENTSIKKLDIQKENHFKVVNESLSRLGIKKYKYSPLTNLNECRKYTWEKIENDL",reaction temperature giving the product having the largest molecular weight,25 °C
same,reaction temperature of the highest incorporation,30 °C
